These are yes or no findings as the source states them, for the method shown. In cells and extracts the contact can be indirect. Some binding calls cover weakened binding; strength is not graded here. Sequences can lack the tags named with a protein.
T1: 12Myc-tagged Met30 L187D (S. cerevisiae) (UniProt P39014)
T1 sequence: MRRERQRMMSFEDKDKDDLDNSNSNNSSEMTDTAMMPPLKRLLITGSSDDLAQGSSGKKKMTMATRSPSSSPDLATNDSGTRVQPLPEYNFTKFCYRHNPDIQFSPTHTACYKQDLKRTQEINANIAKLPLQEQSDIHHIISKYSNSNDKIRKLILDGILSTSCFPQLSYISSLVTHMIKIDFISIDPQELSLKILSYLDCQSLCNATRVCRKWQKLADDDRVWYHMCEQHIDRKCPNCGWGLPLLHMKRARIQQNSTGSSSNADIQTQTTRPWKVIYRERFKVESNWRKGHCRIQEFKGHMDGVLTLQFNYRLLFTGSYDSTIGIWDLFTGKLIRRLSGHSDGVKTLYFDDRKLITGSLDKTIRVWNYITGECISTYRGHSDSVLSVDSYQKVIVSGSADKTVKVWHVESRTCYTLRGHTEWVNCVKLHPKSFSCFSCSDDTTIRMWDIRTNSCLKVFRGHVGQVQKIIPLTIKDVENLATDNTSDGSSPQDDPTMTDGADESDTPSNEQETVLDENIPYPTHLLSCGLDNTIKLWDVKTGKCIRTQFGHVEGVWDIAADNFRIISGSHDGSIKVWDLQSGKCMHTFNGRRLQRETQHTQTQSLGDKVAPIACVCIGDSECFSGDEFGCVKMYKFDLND

The chains behind the UniProt entries cited, without tags or fusion partners.
UniProt P52286: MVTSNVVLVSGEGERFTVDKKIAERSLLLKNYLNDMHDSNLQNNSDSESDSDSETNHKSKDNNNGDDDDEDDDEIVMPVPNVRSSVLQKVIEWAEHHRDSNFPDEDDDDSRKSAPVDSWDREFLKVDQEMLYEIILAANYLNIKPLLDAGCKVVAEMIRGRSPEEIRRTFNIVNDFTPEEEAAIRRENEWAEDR

T2: 12Myc-tagged Cdc53 Y133R, GAL1 inducible (S. cerevisiae) (UniProt Q12018)
T2 sequence: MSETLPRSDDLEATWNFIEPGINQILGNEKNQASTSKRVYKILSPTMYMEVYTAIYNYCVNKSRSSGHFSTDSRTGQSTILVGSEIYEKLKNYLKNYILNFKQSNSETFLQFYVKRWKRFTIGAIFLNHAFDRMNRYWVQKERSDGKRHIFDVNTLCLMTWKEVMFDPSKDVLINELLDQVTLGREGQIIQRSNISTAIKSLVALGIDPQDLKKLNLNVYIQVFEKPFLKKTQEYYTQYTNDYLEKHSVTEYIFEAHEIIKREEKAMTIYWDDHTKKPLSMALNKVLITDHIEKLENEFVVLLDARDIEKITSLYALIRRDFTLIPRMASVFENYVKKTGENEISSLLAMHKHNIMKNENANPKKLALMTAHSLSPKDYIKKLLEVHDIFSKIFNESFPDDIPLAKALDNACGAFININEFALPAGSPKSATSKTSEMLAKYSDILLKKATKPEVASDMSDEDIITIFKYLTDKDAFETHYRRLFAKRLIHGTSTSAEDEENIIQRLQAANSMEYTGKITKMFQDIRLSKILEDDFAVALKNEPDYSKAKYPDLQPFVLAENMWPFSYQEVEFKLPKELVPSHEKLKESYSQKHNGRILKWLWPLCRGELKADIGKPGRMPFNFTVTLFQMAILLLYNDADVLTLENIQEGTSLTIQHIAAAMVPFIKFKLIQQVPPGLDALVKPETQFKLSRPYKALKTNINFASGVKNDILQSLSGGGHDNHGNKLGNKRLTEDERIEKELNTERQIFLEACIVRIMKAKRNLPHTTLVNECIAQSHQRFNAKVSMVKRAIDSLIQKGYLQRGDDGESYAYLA

T3: (MBP)-Met30(1-186) (S. cerevisiae) (UniProt P39014)
T3 sequence: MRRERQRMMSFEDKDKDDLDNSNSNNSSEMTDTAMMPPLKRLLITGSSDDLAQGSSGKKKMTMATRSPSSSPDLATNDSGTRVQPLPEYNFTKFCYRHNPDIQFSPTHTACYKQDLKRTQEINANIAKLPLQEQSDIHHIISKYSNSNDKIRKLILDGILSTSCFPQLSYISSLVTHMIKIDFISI

T4: (MBP)-Met30(1-186) M178E/I179E (S. cerevisiae) (UniProt P39014)
T4 sequence: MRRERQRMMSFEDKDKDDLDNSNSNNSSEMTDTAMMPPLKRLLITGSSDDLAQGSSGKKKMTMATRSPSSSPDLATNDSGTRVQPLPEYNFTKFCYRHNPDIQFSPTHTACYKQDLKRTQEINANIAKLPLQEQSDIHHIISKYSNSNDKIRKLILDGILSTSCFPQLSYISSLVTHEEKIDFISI


Assays:
[1] = biological target: T1, 12Myc-tagged Met30 L187D (S. cerevisiae); test: co-IP; 12MycMet30 or 12MycMet30 L187D immunopurified from yeast grown at 30°C; co-purified proteins by immunoblotting; untagged Met30 strain as control
[2] = biological target: T2, 12Myc-tagged Cdc53 Y133R, GAL1 inducible (S. cerevisiae); test: co-IP; 12MycCdc53 or 12MycCdc53 Y133R (GAL1 inducible, 2% galactose, 30°C) immunopurified from yeast lysate (Triton X-100 buffer); co-purified proteins by immunoblotting
[3] = biological target: T3, (MBP)-Met30(1-186) (S. cerevisiae); test: pull-down; MBP-tagged proteins on amylose resin incubated with 3 mg of Skp1-depleted yeast lysate expressing Cdc53-TAP, 2 h at 4°C, recombinant protein buffer (150 mM NaCl, 0.05% Triton-X100, 0.05% NP-40); Cdc53 detected with PAP antibody; only the target purified
[4] = biological target: T4, (MBP)-Met30(1-186) M178E/I179E (S. cerevisiae); test: as above

| binding [1] | binding [2] | binding [3] | binding [4] | Molecule |
| --- | --- | --- | --- | --- |
| no binding | no binding | – | – | Skp1 (from UniProt P52286 1-194) |
| – | – | binds | binds | TAP-tagged Cdc53, endogenous (protein, UniProt Q12018 1-815) MSETLPRSDDLEATWNFIEPGINQILGNEKNQASTSKRVYKILSPTMYMEVYTAIYNYCVNKSRSSGHFSTDSRTGQSTILVGSEIYEKLKNYLKNYILNFKQSNSETFLQFYVKRWKRFTIGAIFLNHAFDYMNRYWVQKERSDGKRHIFDVNTLCLMTWKEVMFDPSKDVLINELLDQVTLGREGQIIQRSNISTAIKSLVALGIDPQDLKKLNLNVYIQVFEKPFLKKTQEYYTQYTNDYLEKHSVTEYIFEAHEIIKREEKAMTIYWDDHTKKPLSMALNKVLITDHIEKLENEFVVLLDARDIEKITSLYALIRRDFTLIPRMASVFENYVKKTGENEISSLLAMHKHNIMKNENANPKKLALMTAHSLSPKDYIKKLLEVHDIFSKIFNESFPDDIPLAKALDNACGAFININEFALPAGSPKSATSKTSEMLAKYSDILLKKATKPEVASDMSDEDIITIFKYLTDKDAFETHYRRLFAKRLIHGTSTSAEDEENIIQRLQAANSMEYTGKITKMFQDIRLSKILEDDFAVALKNEPDYSKAKYPDLQPFVLAENMWPFSYQEVEFKLPKELVPSHEKLKESYSQKHNGRILKWLWPLCRGELKADIGKPGRMPFNFTVTLFQMAILLLYNDADVLTLENIQEGTSLTIQHIAAAMVPFIKFKLIQQVPPGLDALVKPETQFKLSRPYKALKTNINFASGVKNDILQSLSGGGHDNHGNKLGNKRLTEDERIEKELNTERQIFLEACIVRIMKAKRNLPHTTLVNECIAQSHQRFNAKVSMVKRAIDSLIQKGYLQRGDDGESYAYLA |
